These results are taken from the supplement of paper PMC3682954.

The subject of the test is RAW 264.7. Description: cell viability (MTT) relative to vehicle control; higher = more viable cells. The note with it: stimulus: HMGB1 5 ug/ml, 18 h.
The mark [1] stands for this setting: compound concentration: 1 ug/ml.

Structures are written as SMILES. Several values for one entry are separate records, joined by “and”; a condition that tells them apart may be missing. Equal values may be shown once. Where a name gives a salt, the structure may show the parent alone. ± gives the standard deviation of the averaged measurements. The list shows a part of the results. Repeats are few or missing, and single values can be far off.

For the compound `CCc1cc(=O)oc2cc(OC)c(OC)cc12` [6,7-Dimethoxy-4-ethylcoumarin], the cell viability under setting [1] stood at 94.7%.

Consider `CC1CCC(C(C)C)C(O)C1` (centres undefined), for which the cell viability (compound concentration: 3 uM) turned out to be 103%. On the same count and under the same terms, under `CNCC[C@H](Oc1cccc2ccccc12)c1cccs1` stands 106% and 93%; under `CNCC[C@H](Oc1cccc2ccccc12)c1cccs1` [Duloxetine], 91.8%; under `O=C(CCCN1CCC(O)(c2ccc(Br)cc2)CC1)c1ccc(F)cc1` [Bromperidol], 85.4%. For `O=C(CCCN1CCC(O)(c2ccc(Br)cc2)CC1)c1ccc(F)cc1`, the cell viability (compound concentration: 3 uM) is 84.6%. With `COc1cc2c(cc1OC)C(=O)C(CC1CCN(Cc3ccccc3)CC1)C2` (centres undefined) [Donepezil], the cell viability (compound concentration: 3 uM) was 98.3%.

As for `COc1cc2c(cc1OC)C(=O)C(CC1CCN(Cc3ccccc3)CC1)C2` (centres undefined), the cell viability (compound concentration: 3 uM) was found to be 102%. Still for that read-out and setting: the figure for `CCCCC(CC)CN1CN(CC(CC)CCCC)CC(C)(N)C1` (centres undefined) is 106%; for `CCCCC(CC)CN1CN(CC(CC)CCCC)CC(C)(N)C1` (centres undefined) [Hexetidine] it is 92.5%.

Regarding `NC(N)=NCc1cccc(I)c1` [m-Iodobenzylguanidine hemisulfate], the cell viability (compound concentration: 3 uM) amounted to 111%. Take `NS(=O)(=O)c1cccc2c1c([N+](=O)[O-])cc1nc(O)c(O)nc12` [NBQX disodium]: the cell viability (compound concentration: 3 uM) turned out to be 101%. The same measure, in the same setting: the figure for `N#CC(=C(/N)Sc1ccccc1N)/C(C#N)=C(/N)Sc1ccccc1N` is 91.6%.

Regarding `CC(C)(C)C(=O)OCOC(=O)[C@@H]1N2C(=O)[C@@H](NC(=O)[C@H](N)c3ccccc3)[C@H]2SC1(C)C` [Pivampicillin], the cell viability (compound concentration: 3 uM) is 110%. On the same count and under the same terms, the figure for `O=C1NCN(c2ccccc2)C12CCN(CCCC(c1ccc(F)cc1)c1ccc(F)cc1)CC2` [Fluspirilene] is 111 ± 9.2%. On to `O=C1NCN(c2ccccc2)C12CCN(CCCC(c1ccc(F)cc1)c1ccc(F)cc1)CC2` [Fluspirilen], for which the cell viability (compound concentration: 3 uM) is 108%. The same measure, in the same setting: the figure for `COc1cccc(OC)c1OCCNCC1COc2ccccc2O1` (centres undefined) [WB-4101 hydrochloride] is 112%; for `CC(C)NCC(O)c1ccc(NS(C)(=O)=O)cc1` (racemic) [(±)-Sotalol hydrochloride] it is 116%.

As to `O=C(O)CCC(=O)N1CCC[C@H]1C(=O)O` [N-Succinyl-L-proline], the cell viability (compound concentration: 3 uM) was determined as 116%. Regarding `N=C(N)NC(=O)c1nc(Cl)c(N)nc1N`, where the note is “compound concentration: 3 uM”, the cell viability was 108%. The same measure, in the same setting: the figure for `N=C(N)NC(=O)c1nc(Cl)c(N)nc1N` [Amiloride] is 94.2%; for `N=C(N)NC(=O)c1nc(Cl)c(N)nc1N` [Amiloride hydrochloride dihydrate] it is 108%. Still for that read-out and setting: the figure for `N=C(N)NC(=O)c1nc(Cl)c(N)nc1N` [Amiloride hydrochloride] is 112%. Take `O=[N+]([O-])c1cccc2c(Br)[nH]nc12` [3-Bromo-7-nitroindazole]: the cell viability (compound concentration: 3 uM) came out at 109%. For `O=C(Nc1ccc(C(=O)O)c(O)c1)c1ccccc1`, the cell viability (compound concentration: 3 uM) was found to be 92.5%. Same read-out and setting: the figure for `CCCCOC(=O)c1ccc(N)cc1` is 103%. On the same count and under the same terms, under `CCCCOC(=O)c1ccc(N)cc1` [Butamben] stands 129%. `O=C1c2cc(CO)cc(O)c2C(=O)c2c(OC3OC(CO)C(O)C(O)C3O)cccc21` (centres undefined) [Aloe-Emodin-8-O-glycoside]: the cell viability under setting [1] worked out at 100%. For the compound `CC(C)COC(=O)OCN1C(=O)CN(CCN2CC(=O)N(COC(=O)OCC(C)C)C(=O)C2)CC1=O` [Sobuzoxane], the cell viability (compound concentration: 3 uM) was 118%.

Turning to `CCCCC1=NC2(CCCC2)C(=O)N1Cc1ccc(-c2ccccc2-c2nnn[nH]2)cc1`, for the setting “compound concentration: 3 uM”, the cell viability amounted to 101 ± 3.8%. Turning to `O=C(Nc1nc2ccccc2n1CCN1CCOCC1)c1cccc([N+](=O)[O-])c1` [IRAK-1/4 Inhibitor I], the cell viability (compound concentration: 3 uM) turned out to be 127%. Turning to `CC(=O)SCC[N+](C)(C)C` [Acetylthiocholine chloride], the cell viability (compound concentration: 3 uM) turned out to be 97.8%.

Consider `CC[C@H]1OC(=O)[C@H](C)[C@@H](O[C@H]2C[C@@](C)(OC)[C@@H](O)[C@H](C)O2)[C@H](C)[C@@H](O[C@@H]2O[C@H](C)C[C@H](N(C)C)[C@H]2O)[C@](C)(OC)C[C@@H](C)C(=O)[C@H](C)[C@@H](O)[C@]1(C)O` [Clarithromycin], for which the cell viability (compound concentration: 3 uM) came out at 103 ± 4.9%.

As for `CC[C@H]1OC(=O)[C@H](C)[C@@H](O[C@H]2C[C@@](C)(OC)[C@@H](O)[C@H](C)O2)[C@H](C)[C@@H](O[C@@H]2O[C@H](C)C[C@H](N(C)C)[C@H]2O)[C@](C)(OC)C[C@@H](C)C(=O)[C@H](C)[C@@H](O)[C@]1(C)O`, the cell viability (compound concentration: 3 uM) was found to be 106 ± 5.6%. As to `CCOc1ccccc1OCC1CNCCO1` (centres undefined) [Viloxazine hydrochloride], for the setting “compound concentration: 3 uM”, the cell viability is 103%. On the same count and under the same terms, under `Nc1ccc(-c2ccc3ccccc3n2)cc1` [BF-170 hydrochloride] stands 89.7%; under `O=[N+]([O-])c1ccc2c(c1)S(=O)(=O)C=C2` [Stattic], 125%. As to `CN[C@H](CC(C)C)C(=O)N[C@H]1C(=O)N[C@@H](CC(N)=O)C(=O)N[C@H]2C(=O)N[C@H]3C(=O)N[C@H](C(=O)N[C@H](C(=O)O)c4cc(O)cc(O)c4-c4cc3ccc4O)[C@H](O)c3ccc(c(Cl)c3)Oc3cc2cc(c3O[C@@H]2O[C@H](CO)[C@@H](O)[C@H](O)[C@H]2O[C@H]2C[C@](C)(N)[C@H](O)[C@H](C)O2)Oc2ccc(cc2Cl)[C@H]1O` [Vancomycin hydrochloride], the cell viability (compound concentration: 3 uM) is 93.7%.

In the case of `CN[C@H](CC(C)C)C(=O)N[C@H]1C(=O)N[C@@H](CC(N)=O)C(=O)N[C@H]2C(=O)N[C@H]3C(=O)N[C@H](C(=O)N[C@H](C(=O)O)c4cc(O)cc(O)c4-c4cc3ccc4O)[C@H](O)c3ccc(c(Cl)c3)Oc3cc2cc(c3O[C@@H]2O[C@H](CO)[C@@H](O)[C@H](O)[C@H]2O[C@H]2C[C@](C)(N)[C@H](O)[C@H](C)O2)Oc2ccc(cc2Cl)[C@H]1O` [Vancomycin hydrochloride from Streptomyces orientalis], for the setting “compound concentration: 3 uM”, the cell viability was 114%.

In the case of `CN[C@H](CC(C)C)C(=O)N[C@H]1C(=O)N[C@@H](CC(N)=O)C(=O)N[C@H]2C(=O)N[C@H]3C(=O)N[C@H](C(=O)N[C@H](C(=O)O)c4cc(O)cc(O)c4-c4cc3ccc4O)[C@H](O)c3ccc(c(Cl)c3)Oc3cc2cc(c3O[C@@H]2O[C@H](CO)[C@@H](O)[C@H](O)[C@H]2O[C@H]2C[C@](C)(N)[C@H](O)[C@H](C)O2)Oc2ccc(cc2Cl)[C@H]1O`, the cell viability (compound concentration: 3 uM) is 108%. Consider `O=c1c(O)c(-c2ccc(O)c(O)c2)oc2cc(O)ccc12` [Fisetin], for which, under setting [1], the cell viability was determined as 89%.

As for `CNS(=O)(=O)Cc1ccc2[nH]cc(CCN(C)C)c2c1` [Sumatriptan succinate], under “compound concentration: 3 uM”, the cell viability is 110%.

`CNS(=O)(=O)Cc1ccc2[nH]cc(CCN(C)C)c2c1` [Sumatriptan Succinate]: where the note is “compound concentration: 3 uM”, the cell viability is 97%.

With `CNS(=O)(=O)Cc1ccc2[nH]cc(CCN(C)C)c2c1`, where the note is “compound concentration: 3 uM”, the cell viability came out at 95%.

As usually defined, the cell viability is a read-out of living cells in per cent, often relative to untreated cells.
